# Data as given in PubChem BioAssay AID720710 (VTT Finland, 2013)
# Screen: 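Genes whose loss lowers DNA synthesis when an oncogene drives replication stress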 (primary screen)
# Cell system: human U-2 OS bone cancer cells, parental and a cyclin E (CCNE1) overexpressing line
# Reagent: single siRNA against human genes, 1 µM siRNA in the printed spot mix
# Time to read-out: 67 h
# Conditions: half the arrays: hydroxyurea 2 mM for 16 h, then 3 h recovery; other arrays untreated
# Detection: 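DNA synthesis measured as imaged EdU uptake per nucleus (DAPI) at 67 h, normalised to subgrid median and given as z-score versus non-targeting controls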
# Direction: EdU z-score, cyclin E line, hydroxyurea and EdU z-score, parental, hydroxyurea and EdU z-score, cyclin E line, untreated and EdU z-score, parental, untreated: higher = more DNA synthesis than non-targeting controls
# Shown is an unselected part of about 1,380 deposited reagents. 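One array per condition without replicates; hydroxyurea arrays received 2 mM for 16 h plus 3 h recovery.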
target,PubChem SID,"EdU z-score, cyclin E line, hydroxyurea","EdU z-score, parental, hydroxyurea","EdU z-score, cyclin E line, untreated","EdU z-score, parental, untreated"
N4BP2L1 (NEDD4 binding protein 2 like 1),SID164222364,-0.274,-1.2,-4.89,-0.707
N4BP2L1 (NEDD4 binding protein 2 like 1),SID164222365,1.23,-0.614,-0.335,0.378
SSBP1 (single stranded DNA binding protein 1),SID164222830,-0.449,-0.157,-1.61,0.211
SSBP1 (single stranded DNA binding protein 1),SID164222831,-0.311,0.233,0.48,0.289
CHD2 (chromodomain helicase DNA binding protein 2),SID164221826,-1.14,-2.88,0.0692,-1.1
CHD2 (chromodomain helicase DNA binding protein 2),SID164221827,1.2,-0.771,1.3,-0.518
RFC4 (replication factor C subunit 4),SID164222650,-2.05,-3.14,-2.66,-0.0529
RFC4 (replication factor C subunit 4),SID164222651,-0.384,2.58,0.378,0.828
ORC3 (origin recognition complex subunit 3),SID164222448,-1.82,-1.7,-1.01,-0.0369
ORC3 (origin recognition complex subunit 3),SID164222449,1.01,0.093,0.453,0.442
LOC646359,SID164222220,-2.06,-6.34,-2.2,-1.71
LOC646359,SID164222221,1.09,-3.97,-1.21,-0.342
EZH1 (enhancer of zeste 1 polycomb repressive complex 2 subunit),SID164221954,-0.665,1.35,-1.34,-1.13
EZH1 (enhancer of zeste 1 polycomb repressive complex 2 subunit),SID164221955,0.349,2.13,0.352,-0.17
KMT2A (lysine methyltransferase 2A),SID164222312,-1.57,-3.34,-1.61,-1.01
KMT2A (lysine methyltransferase 2A),SID164222313,0.813,4.59,-0.259,0.569
NPM1 (nucleophosmin 1),SID164222428,-2.45,1.08,-6.32,0.483
NPM1 (nucleophosmin 1),SID164222429,0.718,1.64,-1.8,0.626
LOC644992,SID164222218,-0.21,-0.158,-3.7,-0.691
LOC644992,SID164222219,1.31,0.193,1.19,1.04
SMARCA1 (SNF2 related chromatin remodeling ATPase 1),SID164222770,-0.795,-0.0405,-2.43,-0.609
SMARCA1 (SNF2 related chromatin remodeling ATPase 1),SID164222771,-0.256,0.709,-1.04,-0.249
ZW10 (zw10 kinetochore protein),SID164223034,-1.33,-2.57,-0.839,-1.99
ZW10 (zw10 kinetochore protein),SID164223035,-1.27,1.68,-0.772,-1.51
FAN1 (FANCD2 and FANCI associated nuclease 1),SID164222346,-0.571,-1.36,-1.13,-1.72
FAN1 (FANCD2 and FANCI associated nuclease 1),SID164222347,0.689,0.917,-0.948,-0.527
PPL (periplakin),SID164222542,0.514,-4.19,-2.4,0.0234
PPL (periplakin),SID164222543,0.762,1.93,-0.399,0.619
CHEK1 (checkpoint kinase 1),SID164221838,-1.19,-1.99,-0.212,-2.52
CHEK1 (checkpoint kinase 1),SID164221839,0.676,-1.2,0.2,1.66
NONO (non-POU domain containing octamer binding),SID164222426,-1.74,1.18,-0.604,-1.43
NONO (non-POU domain containing octamer binding),SID164222427,1.51,4.01,1.36,-0.572
"POLG (DNA polymerase gamma, catalytic subunit)",SID164222514,-0.422,-0.816,-0.509,0.397
"POLG (DNA polymerase gamma, catalytic subunit)",SID164222515,-0.11,0.368,1.08,0.584
RAD23A (RAD23 nucleotide excision repair protein A),SID164222588,-1.53,0.966,-1.87,-1.99
RAD23A (RAD23 nucleotide excision repair protein A),SID164222589,-0.495,2.42,-1.51,-0.766
"REV3L (REV3 like, DNA directed polymerase zeta catalytic subunit)",SID164222642,-2.48,-1.41,-0.944,-2.83
"REV3L (REV3 like, DNA directed polymerase zeta catalytic subunit)",SID164222643,0.876,0.698,0.967,-0.443
IFI6 (interferon alpha inducible protein 6),SID164222174,-1.64,-2.07,-1.05,-1.35
IFI6 (interferon alpha inducible protein 6),SID164222175,-0.243,0.979,0.129,-0.167
